At least one compound was matched to its structure with a doubt left.
Key:
[1] = subset lacking APOE4; cited from earlier work
[2] = system: PI3K (p85) from NIH/3T3 cells; experiment: PI3K activity assay (conversion of PI to PI3P, TLC); format: biochemical; settings: 100 μM

| Structure (SMILES) | cognition in mild to moderate AD patients [1] | PI3K activity [2] |
| --- | --- | --- |
| CN(CCOc1ccc(CC2SC(=O)NC2=O)cc1)c1ccccn1 (centres unmarked) [rosiglitazone] | cognitive improvement | – |
| O=c1cc(N2CCOCC2)oc2c(-c3ccccc3)cccc12 [LY294002] | – | completely abolished |

From patent US9618511B2, “Methods and compositions for treating alzheimer's disease” (Eleanore Bennett Charitable Trust #2, priority 2008, dated 2017)
